PubChem BioAssay AID1259405 | NCATS | 2018
Screen: 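Knock-downs that lift recombinant protein yield in hamster ovary cells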 (primary screen). Cells: Chinese hamster CHO-K1 ovary cells with stable secreted eGFP expression. Reagent: single siRNA against mouse genes, 0.8 pmol siRNA per well (2 µl of 400 nM stock). Time to read-out: 3 days. Read-out: 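Percent of the per-plate non-targeting control median for intracellular GFP per well by laser scanning cytometry and for cell viability by ATP luminescence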. Direction: GFP, % of control: higher = more GFP per well, higher productivity; viability (ATP), % of control: higher = more viable cells (more ATP). Active means: 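Called active when intracellular GFP, relative to negative control, is at or above 120%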.
In all, the deposit lists about 50,000 reagents; below is an unselected part. Over the whole deposit, about 4,000 (8%) got an active call. 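Mouse siRNA library applied to hamster cells; one well for each siRNA.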 No sequences are given here.

The opening 2 entries, ahead of the listing:
Or13ae2 (GeneID 258393) [SID363544733] — GFP, % of control = 57.9; viability (ATP), % of control = 42.9; Outcome = inactive
Or13ae2 (GeneID 258393) [SID363551061] — GFP, % of control = 76.1; viability (ATP), % of control = 78.6; Outcome = inactive

The list itself, from the start:
Or13ae2 (GeneID 258393) [SID363544733] — GFP, % of control = 57.9; viability (ATP), % of control = 42.9; Outcome = inactive
Or13ae2 (GeneID 258393) [SID363551061] — GFP, % of control = 76.1; viability (ATP), % of control = 78.6; Outcome = inactive
Or13ae2 (GeneID 258393) [SID363557610] — GFP, % of control = 42.1; viability (ATP), % of control = 69; Outcome = inactive
Rest (GeneID 19712) [SID363573684] — GFP, % of control = 97.1; viability (ATP), % of control = 67.6; Outcome = inactive
Rest (GeneID 19712) [SID363581428] — GFP, % of control = 111; viability (ATP), % of control = 74.5; Outcome = inactive
Rest (GeneID 19712) [SID363583892] — GFP, % of control = 114; viability (ATP), % of control = 108; Outcome = inactive
Klc1 (GeneID 16593) [SID363540981] — GFP, % of control = 100; viability (ATP), % of control = 72.3; Outcome = inactive
Klc1 (GeneID 16593) [SID363555608] — GFP, % of control = 60.6; viability (ATP), % of control = 67; Outcome = inactive
Klc1 (GeneID 16593) [SID363565897] — GFP, % of control = 65.5; viability (ATP), % of control = 58.6; Outcome = inactive
Trp53 (GeneID 22059) [SID363573764] — GFP, % of control = 104; viability (ATP), % of control = 136; Outcome = inactive
Trp53 (GeneID 22059) [SID363581508] — GFP, % of control = 18.2; viability (ATP), % of control = 53.5; Outcome = inactive
Trp53 (GeneID 22059) [SID363583972] — GFP, % of control = 69.5; viability (ATP), % of control = 109; Outcome = inactive
Ciita (GeneID 12265) [SID363584451] — GFP, % of control = 85.9; viability (ATP), % of control = 65.7; Outcome = inactive
Ciita (GeneID 12265) [SID363589481] — GFP, % of control = 68; viability (ATP), % of control = 54.9; Outcome = inactive
Xkr9 (GeneID 381246) [SID363539861] — GFP, % of control = 89.2; viability (ATP), % of control = 87.7; Outcome = inactive
Xkr9 (GeneID 381246) [SID363561162] — GFP, % of control = 100; viability (ATP), % of control = 80; Outcome = inactive
Xkr9 (GeneID 381246) [SID363564198] — GFP, % of control = 40.6; viability (ATP), % of control = 33.4; Outcome = inactive
Banp (GeneID 53325) [SID363546580] — GFP, % of control = 117; viability (ATP), % of control = 60.1; Outcome = inactive
Banp (GeneID 53325) [SID363548336] — GFP, % of control = 35.5; viability (ATP), % of control = 63.4; Outcome = inactive
Banp (GeneID 53325) [SID363560514] — GFP, % of control = 99.9; viability (ATP), % of control = 111; Outcome = inactive
Cyp2d34 (GeneID 223706) [SID363544268] — GFP, % of control = 93.4; viability (ATP), % of control = 62.7; Outcome = inactive
Cyp2d34 (GeneID 223706) [SID363550596] — GFP, % of control = 67.8; viability (ATP), % of control = 81.1; Outcome = inactive
Cyp2d34 (GeneID 223706) [SID363557145] — GFP, % of control = 77.6; viability (ATP), % of control = 79.4; Outcome = inactive
Krt32 (GeneID 16670) [SID363572129] — GFP, % of control = 10.5; viability (ATP), % of control = 75.7; Outcome = inactive
Krt32 (GeneID 16670) [SID363573889] — GFP, % of control = 44.7; viability (ATP), % of control = 50.6; Outcome = inactive
Scamp5 (GeneID 56807) [SID363569902] — GFP, % of control = 56; viability (ATP), % of control = 84; Outcome = inactive
Scamp5 (GeneID 56807) [SID363576942] — GFP, % of control = 52.7; viability (ATP), % of control = 61; Outcome = inactive
Scamp5 (GeneID 56807) [SID363578350] — GFP, % of control = 84.6; viability (ATP), % of control = 88.5; Outcome = inactive
